Laboratory results: the supplement of paper PMC4604168 (melanoma cell lines)
The list shows a part of the results. Single values are uncertain, as repeats are few or missing.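 Cells were imaged in 1,536-well plates, and nuclei stained with an antibody against cleaved PARP were counted against all DNA-stained nuclei to give the apoptosis fraction. Screening doses were chosen to leave most cells alive, and resting and induced cleaved-PARP levels differ strongly between cell lines.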

Legend:
Assay in all cases: cleaved PARP positive nuclei fraction relative to DMSO control; melanoma cells; higher = more apoptosis
Conditions in all cases: library dose: low library concentration; 72 h
WM115 = test system: WM115
WM1716 = test system: WM1716
WM1745 = test system: WM1745
WM3526 = test system: WM3526
WM3619 = test system: WM3619
WM451Lu = test system: WM451Lu

Row | Structure (SMILES) | cleaved PARP positive nuclei fraction (WM115) [%] | cleaved PARP positive nuclei fraction (WM1716) [%] | cleaved PARP positive nuclei fraction (WM1745) [%] | cleaved PARP positive nuclei fraction (WM3526) [%] | cleaved PARP positive nuclei fraction (WM3619) [%] | cleaved PARP positive nuclei fraction (WM451Lu) [%]
1 | Cn1cncc1[C@@](N)(c1ccc(Cl)cc1)c1ccc2c(c1)c(-c1cccc(Cl)c1)cc(=O)n2C [tipifarnib] + NCC(=O)Nc1ccc(-n2nc(C(F)(F)F)cc2-c2ccc3c(ccc4ccccc43)c2)cc1 [OSU03012] (first compound 0.01 µM, partner dose 1 µM) | 138 | 130 | 96.9 | 109 | 84.4 | 110
2 | Cc1ccc(NC(=O)c2cccc(N(C)C)c2)cc1NC(=O)c1ccc(O)cc1 + O=C(O)C(=O)Nc1sc2c(c1C(=O)O)CCNC2 [TCS401] (first compound 2 µM, partner dose 1.66667 µM) | 236 | 115 | 120 | 82.1 | 75.4 | 45.5
3 | C=CCNC1=C2C[C@@H](C)C[C@H](OC)[C@H](O)[C@@H](C)/C=C(\C)[C@H](OC(N)=O)[C@@H](OC)/C=C\C=C(/C)C(=O)NC(=CC1=O)C2=O [Tanespimycin] + Cn1nnc2c(C(N)=O)ncn2c1=O [temozolomide] (first compound 0.002 µM, partner dose 2 µM) | 169 | 82 | 110 | 104 | 126 | 96.8
4 | COCC[n+]1c2c(n(Cc3cnccn3)c1C)C(=O)c1ccccc1C2=O + CO[C@@H]1[C@H](N(C)C(=O)c2ccccc2)C[C@H]2O[C@]1(C)n1c3ccccc3c3c4c(c5c6ccccc6n2c5c31)C(=O)NC4 [Midostaurin] (first compound 0.0004 µM, partner dose 0.08 µM) | 98.4 | 116 | 82.4 | 70.9 | 110 | 288
5 | O=C(CCCCCCC(=O)Nc1ccccc1)NO [vorinostat] + CC1(C)NC(=O)N(c2ccc([N+](=O)[O-])c(C(F)(F)F)c2)C1=O [nilutamide] (first compound 0.08 µM, partner dose 1 µM) | 82.5 | 132 | 110 | 60.9 | 76.7 | 121
6 | Clc1ccc(Nc2nnc(Cc3ccncc3)c3ccccc23)cc1 [vatalanib] + O=S(=O)(c1ccccc1)N(CC(F)(F)F)c1ccc(C(O)(C(F)(F)F)C(F)(F)F)cc1 [T0901317] (first compound 2 µM, partner dose 1.4 µM) | 183 | 60.9 | 132 | 62 | 83.1 | 47.5
7 | OCc1c[nH]c2ccccc12 [Indole-3-carbinol] + Cn1cc(/C=C2\C(=O)Nc3cccnc32)c2ccccc21 [GW441756] (first compound 0.8 µM, partner dose 0.4 µM) | 72.1 | 71.6 | 169 | 213 | 88.7 | 67.3
8 | O=C(Nc1cccc(Cl)c1)Nc1ncc(CCNc2ncnc3ccsc23)s1 + CC(C)CCN1c2nc(Nc3cc(F)c(O)c(F)c3)ncc2N(C)C(=O)C1C [BID1870] (first compound 0.0008 µM, partner dose 0.2 µM) | 202 | 101 | 91 | 73.1 | 90.5 | 63.4
9 | Cn1c(Nc2ccc(C(F)(F)F)cc2)nc2cc(Oc3ccnc(-c4ncc(C(F)(F)F)[nH]4)c3)ccc21 + Cn1cncc1[C@@](N)(c1ccc(Cl)cc1)c1ccc2c(c1)c(-c1cccc(Cl)c1)cc(=O)n2C [tipifarnib] (first compound 0.08 µM, partner dose 0.01 µM) | 362 | 207 | 109 | 370 | 173 | 128
10 | Cc1cc(N2CCOCC2)cc2[nH]c(-c3c(NC[C@@H](O)c4cccc(Cl)c4)cc[nH]c3=O)nc12 + C[C@@H]1CCN(C(=O)CC#N)C[C@@H]1N(C)c1ncnc2[nH]ccc12 [CP690550] (first compound 0.2 µM, partner dose 1 µM) | 66.8 | 99.4 | 132 | 23.3 | 176 | 166
11 | Nc1cccc2c1CN(C1CCC(=O)NC1=O)C2=O (stereo not given) [lenalidomide] + Cn1nnc2c(C(N)=O)ncn2c1=O [temozolomide] (first compound 1 µM, partner dose 2 µM) | 114 | 44.3 | 235 | 84.1 | 83.3 | 277
12 | Nc1cccc2c1CN(C1CCC(=O)NC1=O)C2=O (stereo not given) [lenalidomide] + CC1(C)NC(=O)N(c2ccc([N+](=O)[O-])c(C(F)(F)F)c2)C1=O [nilutamide] (first compound 1 µM, partner dose 1 µM) | 108 | 45.8 | 102 | 187 | 107 | 84.8
13 | NC(=O)Nc1cc(-c2cccc(F)c2)sc1C(=O)N[C@H]1CCCNC1 + COc1cc2ncnc(Nc3ccc(Oc4ccccc4)cc3)c2cc1OC [SrcI1] (first compound 0.02 µM, partner dose 2 µM) | 107 | 134 | 151 | 80.9 | 171 | 32.3
14 | C[C@@H]1CCN(C(=O)CC#N)C[C@@H]1N(C)c1ncnc2[nH]ccc12 + O=C1NC(=O)/C(=C/c2ccc(-c3ccc(F)cc3O)o2)S1 [AS252424] (first compound 1 µM, partner dose 1 µM) | 138 | 80.6 | 100 | 80.9 | 76.8 | 108
15 | Cc1ccc(NC(=O)c2cccc(N(C)C)c2)cc1NC(=O)c1ccc(O)cc1 + O=C1NC(=O)/C(=C/c2ccc(-c3ccc(F)cc3O)o2)S1 [AS252424] (first compound 2 µM, partner dose 1 µM) | 144 | 110 | 99.3 | 78.9 | 65.4 | 514
16 | Cn1cncc1[C@@](N)(c1ccc(Cl)cc1)c1ccc2c(c1)c(-c1cccc(Cl)c1)cc(=O)n2C [tipifarnib] + Oc1nc(-c2ccc(C(F)(F)F)cc2)nc2c1CSCC2 [XAV939] (first compound 0.01 µM, partner dose 2 µM) | 61.3 | 126 | 123 | 175 | 216 | 76.6
17 | OCc1c[nH]c2ccccc12 [Indole-3-carbinol] + O=C(CCCCCCC(=O)Nc1ccccc1)NO [vorinostat] (first compound 0.8 µM, partner dose 0.08 µM) | 106 | 150 | 92.8 | 37.4 | 112 | 58.1
18 | CC(=O)c1c(C)c2cnc(Nc3ccc(N4CCNCC4)cn3)nc2n(C2CCCC2)c1=O [palbociclib] + Oc1cc(-c2nc(-c3ccccc3)[nH]c2-c2ccncc2)ccc1Cl [L779450] (first compound 0.04 µM, partner dose 0.2 µM) | 110 | 72.6 | 770 | 274 | 124 | 114
19 | CO[C@@H]1[C@H](N(C)C(=O)c2ccccc2)C[C@H]2O[C@]1(C)n1c3ccccc3c3c4c(c5c6ccccc6n2c5c31)C(=O)NC4 [Midostaurin] + CN(NC(=O)CC(=O)NN(C)C(=S)c1ccccc1)C(=S)c1ccccc1 [STA4783] (first compound 0.08 µM, partner dose 0.006 µM) | 155 | 148 | 174 | 159 | 109 | 57.7
20 | CC(=O)c1c(C)c2cnc(Nc3ccc(N4CCNCC4)cn3)nc2n(C2CCCC2)c1=O [palbociclib] + Cc1cc([N+](=O)[O-])ccc1NS(=O)(=O)c1cc(Cl)ccc1Cl [FH535] (first compound 0.04 µM, partner dose 1 µM) | 127 | 278 | 121 | 141 | 123 | 83.2
21 | CO[C@@H]1[C@H](N(C)C(=O)c2ccccc2)C[C@H]2O[C@]1(C)n1c3ccccc3c3c4c(c5c6ccccc6n2c5c31)C(=O)NC4 [Midostaurin] + CN(C)S(=O)(=O)c1ccc2c(c1)/C(=C/c1cc3c([nH]1)CCCC3)C(=O)N2 [SU6656] (first compound 0.08 µM, partner dose 0.4 µM) | 524 | 216 | 154 | 64.3 | 98.3 | 32.6
22 | NC(=O)Nc1cc(-c2cccc(F)c2)sc1C(=O)N[C@H]1CCCNC1 + Oc1cc(-c2nc(-c3ccccc3)[nH]c2-c2ccncc2)ccc1Cl [L779450] (first compound 0.02 µM, partner dose 0.2 µM) | 240 | 78.5 | 101 | 110 | 142 | 22.7
23 | Cn1c(Nc2ccc(C(F)(F)F)cc2)nc2cc(Oc3ccnc(-c4ncc(C(F)(F)F)[nH]4)c3)ccc21 + COc1cc2c(Oc3ccc4[nH]c(C)cc4c3F)ncnc2cc1OCCCN1CCCC1 [cediranib] (first compound 0.08 µM, partner dose 0.4 µM) | 553 | 193 | 138 | 104 | 157 | 253
24 | COCC[n+]1c2c(n(Cc3cnccn3)c1C)C(=O)c1ccccc1C2=O + Cc1cc(N2CCOCC2)cc2[nH]c(-c3c(NC[C@@H](O)c4cccc(Cl)c4)cc[nH]c3=O)nc12 [BMS536924] (first compound 0.0004 µM, partner dose 0.2 µM) | 269 | 32.3 | 120 | 71.3 | 96.7 | 184
25 | C#Cc1cccc(Nc2ncnc3cc(OCCOC)c(OCCOC)cc23)c1 [erlotinib] + OCCn1cc(-c2cnc3nnn(Cc4ccc5ncccc5c4)c3n2)cn1 [PF04217903] (first compound 0.8 µM, partner dose 1 µM) | 95.4 | 253 | 117 | 56.7 | 87.5 | 102

Another view of some results above.

| Row | Structure (SMILES) | cleaved PARP positive nuclei fraction (WM115) [%] | cleaved PARP positive nuclei fraction (WM1716) [%] | cleaved PARP positive nuclei fraction (WM1745) [%] | cleaved PARP positive nuclei fraction (WM3526) [%] | cleaved PARP positive nuclei fraction (WM3619) [%] | cleaved PARP positive nuclei fraction (WM451Lu) [%] |
| --- | --- | --- | --- | --- | --- | --- | --- |
| 12 | Nc1cccc2c1CN(C1CCC(=O)NC1=O)C2=O (stereo not given) [lenalidomide] + CC1(C)NC(=O)N(c2ccc([N+](=O)[O-])c(C(F)(F)F)c2)C1=O [nilutamide] (first compound 1 µM, partner dose 1 µM) | 108 | 45.8 | 102 | 187 | 107 | 84.8 |
| 13 | NC(=O)Nc1cc(-c2cccc(F)c2)sc1C(=O)N[C@H]1CCCNC1 + COc1cc2ncnc(Nc3ccc(Oc4ccccc4)cc3)c2cc1OC [SrcI1] (first compound 0.02 µM, partner dose 2 µM) | 107 | 134 | 151 | 80.9 | 171 | 32.3 |
| 14 | C[C@@H]1CCN(C(=O)CC#N)C[C@@H]1N(C)c1ncnc2[nH]ccc12 + O=C1NC(=O)/C(=C/c2ccc(-c3ccc(F)cc3O)o2)S1 [AS252424] (first compound 1 µM, partner dose 1 µM) | 138 | 80.6 | 100 | 80.9 | 76.8 | 108 |
| 15 | Cc1ccc(NC(=O)c2cccc(N(C)C)c2)cc1NC(=O)c1ccc(O)cc1 + O=C1NC(=O)/C(=C/c2ccc(-c3ccc(F)cc3O)o2)S1 [AS252424] (first compound 2 µM, partner dose 1 µM) | 144 | 110 | 99.3 | 78.9 | 65.4 | 514 |
| 16 | Cn1cncc1[C@@](N)(c1ccc(Cl)cc1)c1ccc2c(c1)c(-c1cccc(Cl)c1)cc(=O)n2C [tipifarnib] + Oc1nc(-c2ccc(C(F)(F)F)cc2)nc2c1CSCC2 [XAV939] (first compound 0.01 µM, partner dose 2 µM) | 61.3 | 126 | 123 | 175 | 216 | 76.6 |
| 17 | OCc1c[nH]c2ccccc12 [Indole-3-carbinol] + O=C(CCCCCCC(=O)Nc1ccccc1)NO [vorinostat] (first compound 0.8 µM, partner dose 0.08 µM) | 106 | 150 | 92.8 | 37.4 | 112 | 58.1 |
